{
  "source": "patent US12681015B2",
  "about": "“Methods for predicting patient response to DMARDs” (Queen Mary University of London, priority 2019, dated 2026)",
  "note": "Some results come without the dose or concentration used. Where no unit stands, none is given here, and values compare only within one read-out.",
  "data": [
    {"test": "Plasma lipid mediator profiling in RA patients 6 months after DMARD treatment initiation", "format": "in vivo, human", "conditions": "6 months after treatment initiation, non-responders", "values": [
      {"smiles": "CC/C=C\\C/C=C\\C[C@H](O)/C=C/C=C\\C/C=C\\C=C\\[C@@H](O)CCC(=O)O", "note": "[4S,14S-diHDHA]", "Peripheral blood lipid mediator profile after 6 months of DMARD treatment, DMARD Non-Responders, Mean ± SEM": "1.51 ± 0.37"},
      {"smiles": "CCCCC/C=C\\C[C@H](O)/C=C/C=C\\C=C\\[C@@H](O)CCCC(=O)O", "note": "[5S,12S-diHETE]", "Peripheral blood lipid mediator profile after 6 months of DMARD treatment, DMARD Non-Responders, Mean ± SEM": "0.85 ± 0.33"},
      {"smiles": "CCCCC[C@H](O)/C=C/C=C\\C/C=C\\C=C\\[C@@H](O)CCCC(=O)O", "note": "[5S,15S-diHETE]", "Peripheral blood lipid mediator profile after 6 months of DMARD treatment, DMARD Non-Responders, Mean ± SEM": "26.54 ± 3.89"},
      {"smiles": "CCCCC/C=C\\C[C@@H](O)/C=C/C=C/C=C/[C@@H](O)CCCC(=O)O", "note": "[6-trans-LTB4]", "Peripheral blood lipid mediator profile after 6 months of DMARD treatment, DMARD Non-Responders, Mean ± SEM": "5.35 ± 3.63"},
      {"smiles": "CC/C=C\\C/C=C\\C[C@H](O)/C=C/C=C\\C=C\\[C@@H](O)C/C=C\\CCC(=O)O", "note": "[7S,14S-diHDHA]", "Peripheral blood lipid mediator profile after 6 months of DMARD treatment, DMARD Non-Responders, Mean ± SEM": "2.79 ± 0.69"},
      {"smiles": "CCCCC/C=C\\C[C@H](O)/C=C/C=C/C=C/[C@@H](O)CCCC(=O)O", "note": "[12-epi-6-trans-LTB4]", "Peripheral blood lipid mediator profile after 6 months of DMARD treatment, DMARD Non-Responders, Mean ± SEM": "4.63 ± 2.24"},
      {"smiles": "CC/C=C\\C/C=C\\CC(=O)\\C=C/C=C/C=C/[C@H](O)C/C=C\\CCC(=O)O", "note": "[14-oxo-MaR1]", "Peripheral blood lipid mediator profile after 6 months of DMARD treatment, DMARD Non-Responders, Mean ± SEM": "2.35 ± 0.86"},
      {"smiles": "CCCCC[C@@H](O)/C=C/C=C\\C=C\\C=C\\[C@@H](O)[C@@H](O)CCCC(=O)O", "note": "[15R-LXA4]", "Peripheral blood lipid mediator profile after 6 months of DMARD treatment, DMARD Non-Responders, Mean ± SEM": "1.78 ± 0.54"},
      {"smiles": "CCCCC[C@@H](O)[C@H](O)/C=C/C=C/C=C\\C=C\\[C@@H](O)CCCC(=O)O", "note": "[15R-LXB4]", "Peripheral blood lipid mediator profile after 6 months of DMARD treatment, DMARD Non-Responders, Mean ± SEM": "9.37 ± 1.39"},
      {"smiles": "CC/C=C\\C[C@@H](O)/C=C/C=C\\C=C\\C=C\\[C@@H](O)[C@@H](O)C/C=C\\CCC(=O)O", "note": "[17R-RvD1]", "Peripheral blood lipid mediator profile after 6 months of DMARD treatment, DMARD Non-Responders, Mean ± SEM": "0.27 ± 0.13"},
      {"smiles": "CC/C=C\\C[C@@H](O)/C=C/C=C\\C[C@@H](O)/C=C/C=C/C=C\\[C@@H](O)CCC(=O)O", "note": "[17R-RvD3]", "Peripheral blood lipid mediator profile after 6 months of DMARD treatment, DMARD Non-Responders, Mean ± SEM": "0.10 ± 0.07"},
      {"smiles": "O=C(O)CCCC/C=C\\C[C@@H](O)/C=C/C=C/C=C\\[C@@H](O)CCCC(=O)O", "note": "[20-COOH-LTB4]", "Peripheral blood lipid mediator profile after 6 months of DMARD treatment, DMARD Non-Responders, Mean ± SEM": "0.42 ± 0.33"},
      {"smiles": "O=C(O)CCC[C@H](O)\\C=C/C=C/C=C/[C@H](O)C/C=C\\CCCCCO", "note": "[20-OH-LTB4]", "Peripheral blood lipid mediator profile after 6 months of DMARD treatment, DMARD Non-Responders, Mean ± SEM": "42.62 ± 18.36"},
      {"smiles": "O=C(O)CC/C=C\\C[C@@H](O)/C=C/C=C/C=C\\[C@@H](O)C/C=C\\C/C=C\\CCO", "note": "[22-OH-MaR1]", "Peripheral blood lipid mediator profile after 6 months of DMARD treatment, DMARD Non-Responders, Mean ± SEM": "2.07 ± 1.78"},
      {"smiles": "CCCCC/C=C\\C[C@@H](O)/C=C/C=C/C=C\\[C@@H](O)CCCC(=O)O", "note": "[LTB4]", "Peripheral blood lipid mediator profile after 6 months of DMARD treatment, DMARD Non-Responders, Mean ± SEM": "108.07 ± 50.98"},
      {"smiles": "CCCCC/C=C\\C\\C=C/C=C/C=C/[C@@H](SC[C@H](NC(=O)CC[C@H](N)C(=O)O)C(=O)NCC(=O)O)[C@@H](O)CCCC(=O)O", "note": "[LTC4]", "Peripheral blood lipid mediator profile after 6 months of DMARD treatment, DMARD Non-Responders, Mean ± SEM": "20.10 ± 6.85"},
      {"smiles": "CCCCC/C=C\\C\\C=C/C=C/C=C/[C@@H](SC[C@H](N)C(=O)NCC(=O)O)[C@@H](O)CCCC(=O)O", "note": "[LTD4]", "Peripheral blood lipid mediator profile after 6 months of DMARD treatment, DMARD Non-Responders, Mean ± SEM": "5.65 ± 1.31"},
      {"smiles": "CCCCC/C=C\\C\\C=C/C=C/C=C/[C@@H](SC[C@H](N)C(=O)O)[C@@H](O)CCCC(=O)O", "note": "[LTE4]", "Peripheral blood lipid mediator profile after 6 months of DMARD treatment, DMARD Non-Responders, Mean ± SEM": "87.57 ± 44.40"},
      {"smiles": "CCCCC[C@H](O)/C=C/C=C\\C=C\\C=C\\[C@@H](O)[C@@H](O)CCCC(=O)O", "note": "[LXA4]", "Peripheral blood lipid mediator profile after 6 months of DMARD treatment, DMARD Non-Responders, Mean ± SEM": "0.08 ± 0.03"}
    ]},
    {"test": "Plasma lipid mediator profiling in RA patients 6 months after DMARD treatment initiation", "format": "in vivo, human", "conditions": "6 months after treatment initiation, responders", "values": [
      {"smiles": "CC/C=C\\C/C=C\\C[C@H](O)/C=C/C=C\\C/C=C\\C=C\\[C@@H](O)CCC(=O)O", "note": "[4S,14S-diHDHA]", "Peripheral blood lipid mediator profile after 6 months of DMARD treatment, DMARD Responders, Mean ± SEM": "3.89 ± 3.28"},
      {"smiles": "CCCCC/C=C\\C[C@H](O)/C=C/C=C\\C=C\\[C@@H](O)CCCC(=O)O", "note": "[5S,12S-diHETE]", "Peripheral blood lipid mediator profile after 6 months of DMARD treatment, DMARD Responders, Mean ± SEM": "1.57 ± 0.69"},
      {"smiles": "CCCCC[C@H](O)/C=C/C=C\\C/C=C\\C=C\\[C@@H](O)CCCC(=O)O", "note": "[5S,15S-diHETE]", "Peripheral blood lipid mediator profile after 6 months of DMARD treatment, DMARD Responders, Mean ± SEM": "26.99 ± 7.61"},
      {"smiles": "CCCCC/C=C\\C[C@@H](O)/C=C/C=C/C=C/[C@@H](O)CCCC(=O)O", "note": "[6-trans-LTB4]", "Peripheral blood lipid mediator profile after 6 months of DMARD treatment, DMARD Responders, Mean ± SEM": "1.67 ± 0.28"},
      {"smiles": "CC/C=C\\C/C=C\\C[C@H](O)/C=C/C=C\\C=C\\[C@@H](O)C/C=C\\CCC(=O)O", "note": "[7S,14S-diHDHA]", "Peripheral blood lipid mediator profile after 6 months of DMARD treatment, DMARD Responders, Mean ± SEM": "2.21 ± 0.78"},
      {"smiles": "CCCCC/C=C\\C[C@H](O)/C=C/C=C/C=C/[C@@H](O)CCCC(=O)O", "note": "[12-epi-6-trans-LTB4]", "Peripheral blood lipid mediator profile after 6 months of DMARD treatment, DMARD Responders, Mean ± SEM": "1.95 ± 0.33"},
      {"smiles": "CC/C=C\\C/C=C\\CC(=O)\\C=C/C=C/C=C/[C@H](O)C/C=C\\CCC(=O)O", "note": "[14-oxo-MaR1]", "Peripheral blood lipid mediator profile after 6 months of DMARD treatment, DMARD Responders, Mean ± SEM": "0.32 ± 0.32"},
      {"smiles": "CCCCC[C@@H](O)/C=C/C=C\\C=C\\C=C\\[C@@H](O)[C@@H](O)CCCC(=O)O", "note": "[15R-LXA4]", "Peripheral blood lipid mediator profile after 6 months of DMARD treatment, DMARD Responders, Mean ± SEM": "0.76 ± 0.15"},
      {"smiles": "CCCCC[C@@H](O)[C@H](O)/C=C/C=C/C=C\\C=C\\[C@@H](O)CCCC(=O)O", "note": "[15R-LXB4]", "Peripheral blood lipid mediator profile after 6 months of DMARD treatment, DMARD Responders, Mean ± SEM": "5.11 ± 0.60"},
      {"smiles": "CC/C=C\\C[C@@H](O)/C=C/C=C\\C=C\\C=C\\[C@@H](O)[C@@H](O)C/C=C\\CCC(=O)O", "note": "[17R-RvD1]", "Peripheral blood lipid mediator profile after 6 months of DMARD treatment, DMARD Responders, Mean ± SEM": "0.13 ± 0.07"},
      {"smiles": "CC/C=C\\C[C@@H](O)/C=C/C=C\\C[C@@H](O)/C=C/C=C/C=C\\[C@@H](O)CCC(=O)O", "note": "[17R-RvD3]", "Peripheral blood lipid mediator profile after 6 months of DMARD treatment, DMARD Responders, Mean ± SEM": "0.07 ± 0.04"},
      {"smiles": "O=C(O)CCCC/C=C\\C[C@@H](O)/C=C/C=C/C=C\\[C@@H](O)CCCC(=O)O", "note": "[20-COOH-LTB4]", "Peripheral blood lipid mediator profile after 6 months of DMARD treatment, DMARD Responders, Mean ± SEM": "0.16 ± 0.03"},
      {"smiles": "O=C(O)CCC[C@H](O)\\C=C/C=C/C=C/[C@H](O)C/C=C\\CCCCCO", "note": "[20-OH-LTB4]", "Peripheral blood lipid mediator profile after 6 months of DMARD treatment, DMARD Responders, Mean ± SEM": "24.47 ± 7.22"},
      {"smiles": "O=C(O)CC/C=C\\C[C@@H](O)/C=C/C=C/C=C\\[C@@H](O)C/C=C\\C/C=C\\CCO", "note": "[22-OH-MaR1]", "Peripheral blood lipid mediator profile after 6 months of DMARD treatment, DMARD Responders, Mean ± SEM": "2.21 ± 0.95"},
      {"smiles": "CCCCC/C=C\\C[C@@H](O)/C=C/C=C/C=C\\[C@@H](O)CCCC(=O)O", "note": "[LTB4]", "Peripheral blood lipid mediator profile after 6 months of DMARD treatment, DMARD Responders, Mean ± SEM": "52.21 ± 10.73"},
      {"smiles": "CCCCC/C=C\\C\\C=C/C=C/C=C/[C@@H](SC[C@H](NC(=O)CC[C@H](N)C(=O)O)C(=O)NCC(=O)O)[C@@H](O)CCCC(=O)O", "note": "[LTC4]", "Peripheral blood lipid mediator profile after 6 months of DMARD treatment, DMARD Responders, Mean ± SEM": "13.21 ± 4.65"},
      {"smiles": "CCCCC/C=C\\C\\C=C/C=C/C=C/[C@@H](SC[C@H](N)C(=O)NCC(=O)O)[C@@H](O)CCCC(=O)O", "note": "[LTD4]", "Peripheral blood lipid mediator profile after 6 months of DMARD treatment, DMARD Responders, Mean ± SEM": "6.86 ± 1.69"},
      {"smiles": "CCCCC/C=C\\C\\C=C/C=C/C=C/[C@@H](SC[C@H](N)C(=O)O)[C@@H](O)CCCC(=O)O", "note": "[LTE4]", "Peripheral blood lipid mediator profile after 6 months of DMARD treatment, DMARD Responders, Mean ± SEM": "41.48 ± 12.00"},
      {"smiles": "CCCCC[C@H](O)/C=C/C=C\\C=C\\C=C\\[C@@H](O)[C@@H](O)CCCC(=O)O", "note": "[LXA4]", "Peripheral blood lipid mediator profile after 6 months of DMARD treatment, DMARD Responders, Mean ± SEM": "0.11 ± 0.03"}
    ]}
  ]
}
